Laboratory results: article PMC5807055, “Atomic Structure of Type VI Contractile Sheath from Pseudomonas aeruginosa” (Structure(London, England:1993), 2018)
These are yes or no findings as the source states them, for the method shown. Some binding calls cover weakened binding; strength is not graded here. Tags and fused reporters may be left off the sequences shown.

The chains behind the UniProt entries cited, without tags or fusion partners. Residues count along the entry.
UniProt Q9I748, residues 38-498: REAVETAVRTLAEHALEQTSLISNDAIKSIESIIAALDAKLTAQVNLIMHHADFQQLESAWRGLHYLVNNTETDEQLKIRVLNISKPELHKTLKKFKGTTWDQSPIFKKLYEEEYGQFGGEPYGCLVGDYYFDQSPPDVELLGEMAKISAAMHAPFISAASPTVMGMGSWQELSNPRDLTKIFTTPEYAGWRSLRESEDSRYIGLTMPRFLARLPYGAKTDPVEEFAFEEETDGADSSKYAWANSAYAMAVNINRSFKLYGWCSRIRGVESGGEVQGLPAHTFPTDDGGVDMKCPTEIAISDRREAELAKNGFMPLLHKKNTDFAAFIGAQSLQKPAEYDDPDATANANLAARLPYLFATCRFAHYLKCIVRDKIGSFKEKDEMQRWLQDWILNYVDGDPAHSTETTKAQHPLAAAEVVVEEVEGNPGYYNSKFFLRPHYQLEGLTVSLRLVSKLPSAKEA

Molecular target: TssC1, produced in P. aeruginosa (P. aeruginosa) (UniProt Q9I748)
Assay: negative-stain electron microscopy of purified sheaths; TssB1C1 sheaths (0.1 mg/ml) purified from P. aeruginosa, stained with 2 % uranyl acetate; 12-fold symmetry; both purified

B1: P. aeruginosa TssB1 (H1-T6SS sheath protein), produced in E. coli (natural protein)
chain: MGSTTSSQKFIARNRAPRVQIEYDVELYGAEKKVQLPFVMGVMADLAGKPAEPQAAVADRKFLEIDVDNFDARLKAMKPRVAFNVPNVLTGEGNLSLDITFESMDDFSPAAVARKVDSLNKLLEARTQLANLLTYMDGKTGAEEMIMKAIKDPALLQALASAPKPKDDEPQA
notes: TssB1 of the H1-T6SS cluster of Pseudomonas aeruginosa; 172 residues in total (132 traced; M1-S3 and M136-A172 not traced); also called VipA/IglA homologue; source: E. coli B834(DE3), co-produced with TssC1 from pET28-B1C1, purified as TssB1C1 tubes (size exclusion chromatography)
Q: How did the binding turn out when B1 was run?
A: binds
